Drawing on article PMC11659602 (Communications Chemistry, 2024), this text covers difficulty met for 1 substance.

Some peptides are written in HELM: one residue between dots, names in brackets for other building blocks, links after the first $.

This series in a line: peptide synthesis. Conditions: late stage modification step.

Regarding “PEPTIDE1{[CH2CO].[dY].R.D.[FAO].H.Y.R.H.P.K.Y.C.G.[am]}$PEPTIDE1,PEPTIDE1,1:R3-13:R3$$$V2.0”, the difficulty met result was “partial removal of the N-terminal Fmoc group. This led to a mixture of peptide products containing both one and two warheads”.
